In patent publication US20240116850A1, “COMPOSITIONS AND METHODS RELATED TO BICYCLO[2.2.1] HEPTANAMINE-CONTAINING COMPOUNDS” (The Broad Institute, Inc., priority 2020, published 2024):
Some entries share one result that the patent states for a list of compounds.

Experiment: Dynamic Vapor Sorption (DVS) hygroscopicity
Assay type: physicochemical
Details: 80% RH
Procedure: Dynamic Vapor Sorption (DVS) was measured via a SMS (Surface Measurement Systems) DVS Intrinsic. The relative humidity at 25° C. were calibrated against the deliquescence point of LiCl, Mg(NO3)2 and KCl.

H2O absorption, < 0.2 wt %:
CC(C)[C@@H]1[C@H]2CC[C@H](C2)[C@H]1N.O=C(O)CCC(=O)O [Succinate Type A], CC(C)[C@@H]1[C@H]2CC[C@H](C2)[C@H]1N.O=C(O)/C=C\C(=O)O [Maleate Type A], CC(C)[C@@H]1[C@H]2CC[C@H](C2)[C@H]1N [L-malate Type C], CC(C)[C@@H]1[C@H]2CC[C@H](C2)[C@H]1N.O=C(O)/C=C/C(=O)O [Fumarate Type A]
